Source: PubChem BioAssay AID720710 (VTT Finland, 2013)

Purpose: 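Knock-downs that leave cyclin E-high cells sensitive to replication stress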 (primary screen)
System: human U-2 OS bone cancer cells, parental and a cyclin E (CCNE1) overexpressing line
Reagents: single siRNA against human genes, 1 µM siRNA in the printed spot mix
Time to read-out: 67 h
Treatment: half the arrays: hydroxyurea 2 mM for 16 h, then 3 h recovery; other arrays untreated
Measured: 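DNA synthesis measured as imaged EdU uptake per nucleus (DAPI) at 67 h, normalised to subgrid median and given as z-score versus non-targeting controls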
Reading the numbers: EdU z-score, cyclin E line, hydroxyurea and EdU z-score, parental, hydroxyurea and EdU z-score, cyclin E line, untreated: higher = more DNA synthesis than non-targeting controls
Shown is a random part of about 1,380 reagents. 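One array per condition without replicates; hydroxyurea arrays received 2 mM for 16 h plus 3 h recovery.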 The numbers tell different reagents against one gene apart. Further read-outs or replicates are left out here.

The opening 9 entries, ahead of the listing:
| gene | reagent no. | EdU z-score, cyclin E line, hydroxyurea | EdU z-score, parental, hydroxyurea | EdU z-score, cyclin E line, untreated |
| --- | --- | --- | --- | --- |
| H1-2 (H1.2 linker histone, cluster member) | 1 | -1.73 | -0.039 | -0.403 |
| H1-2 (H1.2 linker histone, cluster member) | 2 | -1.02 | 0.95 | -0.253 |
| MUTYH (mutY DNA glycosylase) | 1 | -1.58 | -0.132 | -0.354 |
| MUTYH (mutY DNA glycosylase) | 2 | 0.796 | 2.56 | 2.16 |
| RING1 (ring finger protein 1) | 1 | -0.746 | 1.04 | -2.71 |
| RING1 (ring finger protein 1) | 2 | 1.8 | 3.6 | -2.47 |
| FAM120A (family with sequence similarity 120 member A) | 1 | -2 | 0.477 | 0.0982 |
| FAM120A (family with sequence similarity 120 member A) | 2 | -1.17 | 1.65 | 0.318 |
| TERT (telomerase reverse transcriptase) | 1 | -0.493 | -4.83 | -2.45 |

The list itself, repeating the preview:
| gene | reagent no. | EdU z-score, cyclin E line, hydroxyurea | EdU z-score, parental, hydroxyurea | EdU z-score, cyclin E line, untreated |
| --- | --- | --- | --- | --- |
| H1-2 (H1.2 linker histone, cluster member) | 1 | -1.73 | -0.039 | -0.403 |
| H1-2 (H1.2 linker histone, cluster member) | 2 | -1.02 | 0.95 | -0.253 |
| MUTYH (mutY DNA glycosylase) | 1 | -1.58 | -0.132 | -0.354 |
| MUTYH (mutY DNA glycosylase) | 2 | 0.796 | 2.56 | 2.16 |
| RING1 (ring finger protein 1) | 1 | -0.746 | 1.04 | -2.71 |
| RING1 (ring finger protein 1) | 2 | 1.8 | 3.6 | -2.47 |
| FAM120A (family with sequence similarity 120 member A) | 1 | -2 | 0.477 | 0.0982 |
| FAM120A (family with sequence similarity 120 member A) | 2 | -1.17 | 1.65 | 0.318 |
| TERT (telomerase reverse transcriptase) | 1 | -0.493 | -4.83 | -2.45 |
| TERT (telomerase reverse transcriptase) | 2 | 0.268 | 2.52 | -0.226 |
| HDAC5 (histone deacetylase 5) | 1 | -1.62 | -4.15 | -1.36 |
| HDAC5 (histone deacetylase 5) | 2 | 1.71 | 0.633 | -1.27 |
| POLRMT (RNA polymerase mitochondrial) | 1 | -0.0995 | -1.25 | -0.311 |
| POLRMT (RNA polymerase mitochondrial) | 2 | 0.545 | 2.49 | 0.845 |
| RNF5 (ring finger protein 5) | 1 | 0.388 | -1.03 | -3.34 |
| RNF5 (ring finger protein 5) | 2 | 0.644 | 0.705 | 0.171 |
| CCNA1 (cyclin A1) | 1 | -0.665 | -1.81 | -1.34 |
| CCNA1 (cyclin A1) | 2 | 0.144 | 0.39 | -0.189 |
| GINS2 (GINS complex subunit 2) | 1 | 0.576 | -5.41 | -1.57 |
| GINS2 (GINS complex subunit 2) | 2 | 1.62 | 0.622 | -0.322 |
| H4C13 (H4 clustered histone 13) | 1 | -1.05 | -8.28 | -0.692 |
| H4C13 (H4 clustered histone 13) | 2 | 1.29 | 0.65 | -0.175 |
| FANCG (FA complementation group G) | 1 | 0.34 | 1.08 | -1.93 |
| FANCG (FA complementation group G) | 2 | 2.54 | 1.99 | 0.0992 |
| MGMT (O-6-methylguanine-DNA methyltransferase) | 1 | 0.192 | -1.97 | -0.74 |
| MGMT (O-6-methylguanine-DNA methyltransferase) | 2 | 0.579 | 4.16 | 0.511 |
| BBC3 (BCL2 binding component 3) | 1 | -1.03 | -1.3 | -1.35 |
| BBC3 (BCL2 binding component 3) | 2 | -0.856 | -0.283 | -0.411 |
| LOC730278 | 1 | -1.33 | 0.103 | -1.37 |
| LOC730278 | 2 | -1.22 | 1.58 | -0.364 |
| MIS12 (MIS12 kinetochore complex component) | 1 | 0.0501 | -0.518 | -0.631 |
| MIS12 (MIS12 kinetochore complex component) | 2 | 0.459 | 1.74 | -0.104 |
| MAP3K20 (mitogen-activated protein kinase kinase kinase 20) | 1 | -0.549 | -3.17 | -2.04 |
| MAP3K20 (mitogen-activated protein kinase kinase kinase 20) | 2 | -0.388 | 0.38 | 1.19 |
| H4C1 (H4 clustered histone 1) | 1 | -2.08 | -7.07 | -1.01 |
| H4C1 (H4 clustered histone 1) | 2 | 0.467 | -1.7 | -0.82 |
| HUWE1 | 1 | -0.281 | -1.22 | -1.99 |
| HUWE1 | 2 | -0.113 | 2.5 | -0.842 |
| SUPT16H (SPT16 homolog, facilitates chromatin remodeling subunit) | 1 | -0.132 | -2.25 | -0.519 |
| SUPT16H (SPT16 homolog, facilitates chromatin remodeling subunit) | 2 | 0.566 | -0.625 | -0.321 |
| TOP1 (DNA topoisomerase I) | 1 | -0.953 | -8.45 | -1.11 |
| TOP1 (DNA topoisomerase I) | 2 | 0.134 | -0.892 | -0.397 |
| RPA4 (replication protein A4) | 1 | -1.45 | 0.0451 | -0.334 |
| RPA4 (replication protein A4) | 2 | 1.02 | 2.36 | -0.193 |
| PRKDC (protein kinase, DNA-activated, catalytic subunit) | 1 | -2.01 | -0.317 | -1.39 |
| PRKDC (protein kinase, DNA-activated, catalytic subunit) | 2 | 0.58 | 1.28 | -0.844 |
| DDX12P (DEAD/H-box helicase 12, pseudogene) | 1 | -1.85 | -2.61 | -5.51 |
| DDX12P (DEAD/H-box helicase 12, pseudogene) | 2 | -0.13 | -1.99 | 0.838 |
| POLG2 (DNA polymerase gamma 2, accessory subunit) | 1 | -1.57 | -0.28 | -0.388 |
| POLG2 (DNA polymerase gamma 2, accessory subunit) | 2 | -0.771 | 2.46 | -0.317 |
| CNOT12 (CCR4-NOT transcription complex subunit 12) | 1 | -1.74 | -1.38 | -1.69 |
| CNOT12 (CCR4-NOT transcription complex subunit 12) | 2 | -0.409 | 1.57 | -0.754 |
| LOC653972 | 1 | -0.785 | 1.09 | -0.982 |
| LOC653972 | 2 | 2.26 | 1.7 | -0.0221 |
| NTHL1 (nth like DNA glycosylase 1) | 1 | 2.41 | -0.695 | 0.668 |
| NTHL1 (nth like DNA glycosylase 1) | 2 | 2.69 | 1.77 | 1.34 |
| ATM (ATM serine/threonine kinase) | 1 | -0.957 | 0.787 | -1.52 |
| ATM (ATM serine/threonine kinase) | 2 | -0.351 | 1.01 | -0.874 |
| ZNF93 (zinc finger protein 93) | 1 | -0.028 | -1.53 | -0.823 |
| ZNF93 (zinc finger protein 93) | 2 | 0.7 | 2.56 | 0.192 |
| RECQL (RecQ like helicase) | 1 | -1.44 | -1.11 | -1.2 |
| RECQL (RecQ like helicase) | 2 | -0.781 | 1.42 | -0.919 |
| RRM1 (ribonucleotide reductase catalytic subunit M1) | 1 | -1.21 | -3.15 | -1.06 |
| RRM1 (ribonucleotide reductase catalytic subunit M1) | 2 | 0.617 | -0.374 | 1.15 |
| KAT6A (lysine acetyltransferase 6A) | 1 | 0.0601 | -0.713 | -2.11 |
| KAT6A (lysine acetyltransferase 6A) | 2 | 0.495 | 0.56 | -0.526 |
| FLJ35220 | 1 | -0.459 | -0.67 | -1.82 |
| FLJ35220 | 2 | 1.02 | 1.8 | -1.6 |
| UBA1 (ubiquitin like modifier activating enzyme 1) | 1 | -0.675 | -2.28 | -2.35 |
| UBA1 (ubiquitin like modifier activating enzyme 1) | 2 | 2.39 | -0.434 | -0.4 |
| DNMT3A (DNA methyltransferase 3 alpha) | 1 | 0.512 | -2.26 | -0.605 |
| DNMT3A (DNA methyltransferase 3 alpha) | 2 | 1.71 | 0.203 | -0.546 |
| TFAM (transcription factor A, mitochondrial) | 1 | -0.145 | 0.135 | -0.366 |
| TFAM (transcription factor A, mitochondrial) | 2 | 0.867 | 1.87 | 0.464 |
